For at least one entry, the source does not settle the construct or the ends of the probe. Negatives hold for the conditions tested. The comparison behind a weaker result is the experiment's own reference, which may not be listed here.
Test system: SKIV2L (hSKI complex subunit) + TTC37 (hSKI complex subunit) + WDR61 (hSKI complex subunit)
Assay: EMSA
Settings: 2 mM Mg2+, 25 mM Hepes-KOH pH 7.6, 2 mM Mg acetate, 50 mM NaCl, 1 mM DTT, 0.1 mg/ml BSA, 1 nM substrate, 37 C 30 min, 0.7% agarose gel at 4 C, recombinant protein
[1] = poor binding, label: 5' 32P on one strand

Sequence: ACGUCAGAUGAUCGAUGGGGUUAGGGUUG / CCCCATCGATCATCTGACGT [3' TERRA R:D (LR01 RNA + cLR01_20)]
- Kd (label: 5' 32P on one strand, DNA:RNA hybrid): 25 nM

Sequence: ACGTCAGATGATCGATGGGGTTAGGGTTAG / CCCCATCGATCATCTGACGT [3' TEL D:D (LR01 + cLR01_20)]
- Kd (label: 5' 32P on one strand): 6 nM

Sequence: GGTTAGGGTTAGGGTTAGGGTTAGGGTTAG (double strand) [dsDNA (TEL30 + CTEL30)]
- binding result (label: 5' 32P on one strand): no binding

Sequence: GGTTAGGGTTAGGGTTAGGGTTAGGGTTAG / CTAACCCTAACCCTAACCCT [5' TEL D:D (TEL30 + 5'CTEL20)]
- binding result [1]: binds more weakly

Sequence: UUAGGGUUAGGGUUAGGGUUAGGGUUAGGG [TERRA]
- binding result (lower affinity than TEL18, label: 5' 32P): binds more weakly

Sequence: ACGUCAGAUGAUCGAUGGGGUUAGGGUUG / CCCCAUCGAUCAUCUGACGU [3' TERRA R:R (LR01 RNA + cLR01_20 RNA)]
- Kd (label: 5' 32P on one strand): 12 nM

Sequence: CCCCACCACCAUCACUUACCAUCACUU / AAGUGAUGGUAAGUGAU [5' Non-TERRA R:R (5'ss27 + 5'Css17)]
- binding result [1]: binds more weakly

Source: article PMC11530851
